According to PMC5550679:
No constants are given. Whether binding was seen depends on the method and setting. In cells and extracts the contact can be indirect. Binding can be weak; no strength is given.

T1: Tetraodon nigroviridis FXYD8 (Tetraodon nigroviridis (endogenous in pufferfish kidney)) (UniProt Q4RHT7)
T1 sequence: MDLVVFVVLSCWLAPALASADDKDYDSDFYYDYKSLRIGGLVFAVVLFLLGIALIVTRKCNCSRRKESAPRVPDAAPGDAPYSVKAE


Columns and labels:
[1] = target: T1, Tetraodon nigroviridis FXYD8 (Tetraodon nigroviridis (endogenous in pufferfish kidney)); assay: co-IP; renal crude membrane fractions of freshwater pufferfish; IP with anti-TnFXYD8 antiserum or anti-NKA α5 antibody (ImmunoCruz IP/WB Optima System), PBS as negative control; immunoblot for the other protein
[2] = target: Na+/K+-ATPase α-subunit (Tetraodon nigroviridis (endogenous in pufferfish kidney)); assay: as above

binding [1] | binding [2] | Molecule
binds | – | Na+/K+-ATPase α-subunit
– | binds | Tetraodon nigroviridis FXYD8 (protein, UniProt Q4RHT7 1-87) MDLVVFVVLSCWLAPALASADDKDYDSDFYYDYKSLRIGGLVFAVVLFLLGIALIVTRKCNCSRRKESAPRVPDAAPGDAPYSVKAE
